Binding data for 4 molecules are collected here from publication PMC9352765.

These are yes or no findings as the source states them, for the method shown. For some of these results: Binding seen in cells or lysates may run through a third protein. Some results given as binding are weak or reduced against the parent protein; the word gives no strength.

In assay [1] the target is Syt13-C2A (aa 39 to 282 of mouse Syt13) (mouse) (UniProt Q9EQT6). Briefly: dynamic light scattering; Zetasizer Nano ZS; protein above 0.5 mg/mL in 50 mM Tris, 150 mM NaCl, 1 mM DTT, pH 8.0; both purified.
Assay [2] addresses Syt13-C2AB (aa 39–426 of mouse Syt13) (mouse) (UniProt Q9EQT6). Described as above.
For assay [3], the target named is Syt13-C2B (aa 289–426 of mouse Syt13) (mouse) (UniProt Q9EQT6). The description is as above.
Assay [4] addresses T1, Syt13-BirA recombinant protein (mouse) (UniProt Q9EQT6).
T1 sequence: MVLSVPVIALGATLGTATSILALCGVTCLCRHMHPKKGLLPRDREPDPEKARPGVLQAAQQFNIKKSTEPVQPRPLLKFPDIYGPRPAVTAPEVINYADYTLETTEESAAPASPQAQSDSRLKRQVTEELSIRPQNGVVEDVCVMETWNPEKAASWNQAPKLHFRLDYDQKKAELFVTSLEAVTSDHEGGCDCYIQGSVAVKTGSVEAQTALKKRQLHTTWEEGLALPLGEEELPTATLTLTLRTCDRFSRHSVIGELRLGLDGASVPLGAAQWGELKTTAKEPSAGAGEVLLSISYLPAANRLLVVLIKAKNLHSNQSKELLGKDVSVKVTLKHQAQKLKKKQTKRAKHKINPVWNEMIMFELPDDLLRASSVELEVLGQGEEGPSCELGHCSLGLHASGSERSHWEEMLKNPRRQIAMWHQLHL
Briefly: co-IP; MDCK cells; called co-IP in the results; the methods tell only of the precipitation on NeutrAvidin beads of the BioID approach, followed by western blot.

B1: Syt13-C2A (aa 39 to 282 of mouse Syt13) (domain or fragment, UniProt Q9EQT6 39-282)
chain: LLPRDREPDPEKARPGVLQAAQQFNIKKSTEPVQPRPLLKFPDIYGPRPAVTAPEVINYADYTLETTEESAAPASPQAQSDSRLKRQVTEELSIRPQNGVVEDVCVMETWNPEKAASWNQAPKLHFRLDYDQKKAELFVTSLEAVTSDHEGGCDCYIQGSVAVKTGSVEAQTALKKRQLHTTWEEGLALPLGEEELPTATLTLTLRTCDRFSRHSVIGELRLGLDGASVPLGAAQWGELKTTAK
For the molecule B1, the binding entry in assay [1] is given as “no binding (tested: above 0.5 mg/mL)”.

B2: Syt13-C2AB (aa 39–426 of mouse Syt13) (domain or fragment, UniProt Q9EQT6 39-426)
chain: LLPRDREPDPEKARPGVLQAAQQFNIKKSTEPVQPRPLLKFPDIYGPRPAVTAPEVINYADYTLETTEESAAPASPQAQSDSRLKRQVTEELSIRPQNGVVEDVCVMETWNPEKAASWNQAPKLHFRLDYDQKKAELFVTSLEAVTSDHEGGCDCYIQGSVAVKTGSVEAQTALKKRQLHTTWEEGLALPLGEEELPTATLTLTLRTCDRFSRHSVIGELRLGLDGASVPLGAAQWGELKTTAKEPSAGAGEVLLSISYLPAANRLLVVLIKAKNLHSNQSKELLGKDVSVKVTLKHQAQKLKKKQTKRAKHKINPVWNEMIMFELPDDLLRASSVELEVLGQGEEGPSCELGHCSLGLHASGSERSHWEEMLKNPRRQIAMWHQLHL
Regarding B2, in assay [2], the binding result is recorded as “no binding (tested: above 0.5 mg/mL)”.

B3: Syt13-C2B (aa 289–426 of mouse Syt13) (domain or fragment, UniProt Q9EQT6 289-426)
chain: GEVLLSISYLPAANRLLVVLIKAKNLHSNQSKELLGKDVSVKVTLKHQAQKLKKKQTKRAKHKINPVWNEMIMFELPDDLLRASSVELEVLGQGEEGPSCELGHCSLGLHASGSERSHWEEMLKNPRRQIAMWHQLHL
On to B3, for which the binding entry in assay [3] is on record as “no binding (tested: above 0.5 mg/mL)”.

B4: Caveolin-1 (protein, UniProt P33724 1-178)
chain: MSGGKYVDSEGHLYTVPIREQGNIYKPNNKAMAEEMSEKQVYDAHTKEIDLVNRDPKHLNDDVVKIDFEDVIAEPEGTHSFDGIWKASFTTFTVTKYWFYRLLSALFGIPMALIWGIYFAILSFLHIWAVVPCIKSFLIEIQCISRVYSIYVHTFCDPFFEAVGKIFSNIRINMQKET
Consider B4, for which the binding result in assay [4] is recorded as “binds”.
